Experimental data as given in patent US12485119B2, “Methods of treating pulmonary arterial hypertension” (ACTELION PHARMACEUTICALS LTD, priority 2019, dated 2025).

System: newly diagnosed, treatment-naïve subjects with PAH
Assay: Exposure to study treatments, individual maintenance dose and maximum tolerated dose
Assay type: in vivo, human
Settings: up to EOMOP, Safety Set
Experimental: The starting dose of double-blind selexipag or placebo on Day 15±3 is 200 μg twice daily (in the morning and in the evening). The dose is up-titrated in increments of 200 μg twice daily, usually at weekly intervals (see Table 1), until either a maximum dose of 1600 μg twice daily is reached or adverse pharmacological effects that cannot be tolerated or medically managed are experienced, whichever is first. In the event of adverse effects typical of prostanoid therapy, it is recommended not to discontinue double-blind treatment because these effects are usually transient or manageable with symptomatic treatment. If a dose that cannot be tolerated is reached, the dose should be reduced to the previous dose level.

CC(C)N(CCCCOCC(=O)NS(C)(=O)=O)c1cnc(-c2ccccc2)c(-c2ccccc2)n1 [Selexipag, 2-{4-[(5,6-diphenylpyrazin-2-yl)(propan-2-yl)amino]butoxy}-N-(methanesulfonyl)acetamide]
Individual maintenance dose of double-blind treatment (b.i.d), Mean: 1043.7 µg
Individual maintenance dose of double-blind treatment (b.i.d), Median: 1200.0 µg
Individual maintenance dose of double-blind treatment (b.i.d), Median (listed as selexipag): 1200 µg
